In patent publication US5175254 (dated 1992):
No end group written: not given here.

Test: Boc solid-phase peptide synthesis; polyacrylic resin (EP 0 079 812 / EP 0 081 408), amidified with ethylene diamine; symmetrical anhydride
Conditions: whole synthesis

Q: With CSDSEKLNLDSI-OH as the substance, how does the crude yield read?
A: Its crude yield is 58.6%.

Q: Which isolated yield (based on the starting amino groups of the support) does the source give for “pyro-Glu-His-Trp-Ser-Tyr-DTrp-Leu-Arg-Pro-Gly” here?
A: Its isolated yield is 51%.
